Measurements taken from PubChem BioAssay AID493014 (National Center for Advancing Translational Sciences (NCATS), 2011).
Screen size: about 340,000 compounds; about 170 (0.05%) were called active. Inconclusive means that the source gave no clear call. Such entries were picked first, then a sample of the others. Calls follow the shape of the dose curve; as a rule, active = well fitted inhibition curve with a large enough effect in the signal ratio, with a control signal flat (not every such curve was filed as active); inconclusive = small, poorly fitted or top-dose-only effect, or effect the other way, or a change in a side signal; inactive = flat fitted curve, though single readings scatter; the % refers to the signal ratio. A potency beside an inconclusive call is a rough fit, not a confirmed value.

test: qHTS Assay to Find Inhibitors of Chronic Active B-Cell Receptor Signaling; settings: ABC-DLBCL IkBa-CBG/CBR reporter, luminescence ratio (green luciferase fused to IkBa over red control in TMD8 lymphoma cells), 4 h; activity change, negative = inhibition: at 46.1 µM (top of the series);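 as to activity change, negative = inhibition: plate controls were basal doxycycline-induced cells for no effect and cells given 10 µM MG132 for full effect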
Outline: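 Cell line TMD8 (human ABC DLBCL), stably expressing tet-inducible CBG68-IkBa fusion and CBR; IMDM/0.5% FBS; cpd up to 46 uM; dox induction, 4 h, 37C/5% CO2; dual luminescence; green/red ratio; MG132 control.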
Potency is read from the fitted curve at half-maximal effect.

| Compound | activity change, negative = inhibition | Potency |
| --- | --- | --- |
| CN1C2CCC1/C(=C\c1ccccc1F)C(=O)/C2=C/c1ccccc1F | inactive: -6.25% | – |
| COc1ccc(Nc2cc(C(=O)NCCCN3CCOCC3)c3ccccc3n2)c(OC)c1 | inactive: -1.21% | – |
| COCCNC(=S)N(CCc1c(C)[nH]c2ccc(Cl)cc12)Cc1cccs1 | inconclusive: 16.7% | – |
| CC(C)(C)c1nnc(NC(=O)c2cccs2)s1 | inactive: 4.98% | – |
| CCCCCC(=O)Nc1ccc(S(=O)(=O)Nc2cc(OC)nc(OC)n2)cc1 | inconclusive: 1.4% | – |
| CCc1ccc(N2CC(C(=O)Nc3ccc(C)c(S(=O)(=O)N4CCOCC4)c3)CC2=O)cc1 (centres undefined) | inconclusive: -94.3% | – |
| COc1ccc(C(=O)Nc2cccc(-c3cnc4ccccc4n3)c2)cc1 | inconclusive: 0.917% | – |
| OC(CNCCC(c1ccccc1)c1ccccc1)COc1ccccc1 (centres undefined) | – | inconclusive: 22.4 µM [falling, single point] |
| Cc1ccc(C(C)C)c(OCC(O)CN2CCc3ccccc3C2)c1 (centres undefined) | inconclusive: -9.3% | – |
| CC(NC(=O)NC1CCCCC1)c1ccc2c(c1)OCO2 (centres undefined) | inconclusive: 5.65% | – |
| Cc1cccc(COc2ncnc3nc[nH]c23)c1 | inactive: -0.445% | – |
| Cc1cc(C)n2c(=S)[nH]nc2n1 | inactive: 3.72% | – |
| Cc1ccc(Cl)c(NC(=O)COC(=O)c2nn(C)c(=O)c3ccccc23)c1Cl | inactive: -2.8% | – |
| O=c1cc(-c2ccccc2)c2cc(Cl)ccc2[nH]1 | inconclusive: 2.87% | – |
| O=C1NCCCC2c3c(cc(Br)c(O)c3Br)OC12N1CCCCC1 (centres undefined) | inconclusive: 10.2% | – |
| CCOC(=O)CC(=O)CSc1nc(C)nc2c1oc1ccccc12 | inconclusive: 9.53% | – |
| C=CCOc1c(/C=N\NC(N)=O)cccc1OC | inactive: -7.19% | – |
| O=C(CNS(=O)(=O)c1ccc(Br)s1)NCCc1ccc(Cl)cc1 | inactive: 2.49% | – |
| O=C(O)/C(=C\c1cn(-c2ccccc2)nc1-c1cccnc1)NC(=O)c1ccccc1 | inactive: 4.93% | – |
| COc1ccc(NC(=S)NCc2ccco2)c(OC)c1 | – | inconclusive: 29.1 µM [falling, single point] |
| CSCCC(NC(=O)c1ccccc1)C(=O)NC1CC1 (centres undefined) | inactive: -27.7% | – |

Reprinted at random: 4 records from the list.

| Compound | activity change, negative = inhibition | Potency |
| --- | --- | --- |
| OC(CNCCC(c1ccccc1)c1ccccc1)COc1ccccc1 (centres undefined) | – | inconclusive: 22.4 µM [falling, single point] |
| O=C1NCCCC2c3c(cc(Br)c(O)c3Br)OC12N1CCCCC1 (centres undefined) | inconclusive: 10.2% | – |
| CC(NC(=O)NC1CCCCC1)c1ccc2c(c1)OCO2 (centres undefined) | inconclusive: 5.65% | – |
| COCCNC(=S)N(CCc1c(C)[nH]c2ccc(Cl)cc12)Cc1cccs1 | inconclusive: 16.7% | – |

(more compounds)

| Compound | activity change, negative = inhibition | Potency |
| --- | --- | --- |
| O=C(NN=C1CCN(Cc2ccccc2)CC1)c1cc(Br)ccc1O | inconclusive: 225% | – |
| Cc1ccc(SC(C)c2nc(-c3cccnc3)no2)cc1 (centres undefined) | inconclusive: 14.3% | – |
| CCOc1ccccc1NC(=O)Cn1[nH]c(=O)c2ccccc2c1=O | inconclusive: -22.8% | – |
| O=C(NCc1ccccc1)Nc1cccn(Cc2ccccc2Cl)c1=O | inconclusive: -20.3% | – |
| CCOC(=O)c1ccc(NC(=S)NC(=O)c2nn(CC)cc2Br)cc1 | inconclusive: 2.15% | – |
| O=C(c1ccc(S(=O)(=O)N2CCCC2)cc1)N1CCCCC1 | inactive: 13% | – |
| COc1cccc(CC2(CO)CCCN(Cc3cc4ccccc4[nH]3)C2)c1 (centres undefined) | – | inconclusive: 35.5 µM [falling, single point] |
| O=c1c2ccccc2ncn1-c1ccc(Cl)cc1 | inconclusive: -19.2% | – |
| CC(C)Oc1cc(O)c2c(=O)c(-c3ccc(O)cc3)coc2c1 | – | inconclusive: 4.11 µM [rising, partial curve] |
| COc1cc(C(=O)NCc2nnc(SCC(=O)Nc3cc(C)cc(C)c3)o2)cc(OC)c1OC | inconclusive: -16.2% | – |
| O=C(Nc1ccc(Cl)cc1)C1CCC(=O)N1Cc1ccccc1Cl (centres undefined) | inconclusive: -0.256% | – |
| c1ccc2c(c1)OCC(c1csc3ncnc(N4CCCCC4)c13)O2 (centres undefined) | inactive: 3.42% | – |
| Cc1c(CCC(=O)NCCCn2ccnc2)c(=O)oc2cc3oc4c(c3cc12)CCCC4 | inconclusive: -14% | – |
| CN1C(C(=O)Nc2ccc(OC(F)(F)F)cc2)=CC(c2cccs2)=NS1(=O)=O | inconclusive: -13.5% | – |
| O=C(c1cccc(S(=O)(=O)Nc2ccccc2Cl)c1)N1CCCCCC1 | inactive: 2.41% | – |
| CCCn1c(N)c(N(CCOC)C(=O)c2ccc(-c3ccc(Cl)cc3)o2)c(=O)[nH]c1=O | inactive: -1.81% | – |
| CC1Cc2nc(SCC(=O)N3CCOCC3)n(-c3ccccc3)c(=O)c2S1 (centres undefined) | inconclusive: -0.0503% | – |
| Cc1cc(OCC(=O)NCc2ccccn2)cc(C)c1Br | inconclusive: 3.82% | – |
| COc1cc2ccccc2cc1-c1nnc(COc2ccccc2)o1 | – | inconclusive: 6.51 µM [falling, single point] |
| O=C(CN1C(=O)C2C3C=CC(C4CC34)C2C1=O)Nc1cccc2ncccc12 (centres undefined) | inactive: -0.749% | – |
| CC(Oc1ccc2c(-c3ccccc3)cc(=O)oc2c1)C(=O)NCCCn1ccnc1 (centres undefined) | inactive: 6.94% | – |

Whole records from above. Values in the order: activity change, negative = inhibition	Potency
Cc1ccc(SC(C)c2nc(-c3cccnc3)no2)cc1 (centres undefined) is listed with inconclusive: 14.3%	–
O=C(NCc1ccccc1)Nc1cccn(Cc2ccccc2Cl)c1=O is listed with inconclusive: -20.3%	–

Further compounds:

| Compound | activity change, negative = inhibition | Potency |
| --- | --- | --- |
| COC(=O)C(=O)/C=C(\O)c1c(C)cc(C)cc1C | inactive: 0.726% | – |
| CCCn1ncc(CN2CCN(CCc3ccccc3)C(CCO)C2)c1C (centres undefined) | inactive: -2.39% | – |
| Cc1c(NN=C(C#N)C#N)c(=O)n(-c2ccccc2)n1C | inconclusive: 2.19% | – |
| N/C(CC(=O)NC1CCCCC1)=N\OCC(=O)Nc1ccc(Cl)c(Cl)c1 | inconclusive: -12.1% | – |
| COc1ccccc1N1CCN(/N=C\C(Br)=C\c2ccccc2)CC1 | – | inconclusive: 28.2 µM [falling, single point] |
| C=C1c2cc(C)ccc2NC(=O)N1c1ccc(C)cc1 | inconclusive: 1.84% | – |
| Cc1ccc(NC(=O)/C=C/c2ccc(Cl)cc2)nc1 | inactive: 1.44% | – |
| CC(=O)c1ccc(NC(=O)COC(=O)c2ccccc2N=Nc2ccc(N(C)C)cc2)cc1 | – | inconclusive: 29.1 µM [falling, single point] |
| Cc1nn(C)cc1/C=N/NC(=O)c1ccc2c(c1)OCO2 | – | inconclusive: 3.98 µM [falling, full curve, poor fit] |
| O=C(Nc1ccccc1)N1CCCN(c2ccc(C(F)(F)F)cc2[N+](=O)[O-])CC1 | inactive: -0.0396% | – |
| O=C(COC(=O)c1cc(=O)[nH]c2ccccc12)Nc1cccc(S(=O)(=O)N2CCOCC2)c1 | inactive: -13.3% | – |
| C[C@@H]1CN=C2N(CCNC(=O)CCC3CCCCC3)[C@H](Cc3ccc(O)cc3)CN21 | inactive: -18.9% | – |
| COc1cc(C(=S)N2CCCCC2)ccc1OCC(=O)N1CCCC1 | inconclusive: 2.2% | – |
| O=C(N/N=C\c1ccc(-c2cccc(Cl)c2)o1)C(=O)NC1CCCC1 | inconclusive: 0.629% | – |
| CCCCOc1cc(C(=O)NCCN(CC)CC)c2ccccc2n1 | inconclusive: -18.2% | inconclusive: 25.9 µM [falling, partial curve, poor fit] |
| Cc1ccc(-c2csc(N3CCC[C@@H]3C(=O)NCCn3c(-c4ccncc4)nc4ccccc43)n2)cc1 | – | inconclusive: 11.2 µM [falling, single point] |
| O=C(O)c1ccccc1CSc1nnc2c(n1)[nH]c1ccccc12 | – | inconclusive: 3.16 µM [falling, full curve, poor fit] |
| Cc1ccc(S(=O)(=O)NCCNc2ccc([N+](=O)[O-])cc2)cc1 | inactive: 2.35% | – |
| COc1ccc(CNC(=O)c2cc(=O)c3c(C)cc(C)cc3o2)cc1 | inconclusive: -1.89% | – |
| COc1ccccc1NS(=O)(=O)c1ccc(NN=C2CCCC2)c([N+](=O)[O-])c1 | inconclusive: -21.3% | – |
| O=S(=O)(c1ccccc1)N(CC1CO1)c1cccc2ccccc12 (centres undefined) | – | inconclusive: 35.5 µM [falling, single point] |

| Compound | activity change, negative = inhibition | Potency |
| --- | --- | --- |
| CN(CC(=O)Nc1ccccc1)CC(=O)Nc1ccccc1Cl | inconclusive: -26.1% | – |
| COc1cccc(-c2nn(C)c3sc(C(=O)N4CCN(c5ccccn5)CC4)cc23)c1 | – | inconclusive: 23.1 µM [falling, single point] |
| CSCCOC(=O)c1[nH]c2c(c1C)C(=O)CC(c1ccco1)C2 (centres undefined) | inconclusive: -20.8% | – |
| CCOC(=O)c1c(NC(N)=O)nc2n1CCC2 | inconclusive: -15.4% | – |
| CC(=O)c1cccc(NS(=O)(=O)c2ccc(N/C=C\C(=O)c3ccc(F)cc3)cc2)c1 | inconclusive: -24.1% | – |
| N=c1c2c(ncn1CCCO)Oc1c(ccc3ccccc13)C2c1ccccc1 (centres undefined) | – | inconclusive: 4.47 µM [falling, partial curve, poor fit] |
| O=C(OCCCN1C(=O)c2ccccc2C1=O)c1ccco1 | inconclusive: 2.36% | – |
| Cc1ccc(-c2nnc(-c3ccccc3)o2)cc1 | – | inconclusive: 16.4 µM [falling, partial curve] |
| COC(=O)c1sc(NC(=O)COc2ccccc2OC)nc1C | – | inconclusive: 20.6 µM [falling, partial curve] |
| [O-][n+]1c(/C=C/c2ccccc2)ccc2ccccc21 | – | inconclusive: 31.6 µM [rising, partial curve] |
| CN(Cc1ccc(Cl)c(Cl)c1)C(=O)CN1C(=O)NC2(CCCC2)C1=O | inconclusive: -11.8% | – |
| Cc1ccc(NC(=O)COC(=O)Cc2csc(-c3cccc(F)c3)n2)cc1C | inconclusive: 16.6% | – |
| C=CC(=O)Nc1ccc(CN2C(=O)N(c3c(Cl)c(OC)cc(OC)c3Cl)Cc3cnc(NCCCCN(CC)CC)nc32)cc1 | – | inconclusive: 23.1 µM [falling, single point] |
| N#Cc1ccc(CSc2nnc(NC(=O)c3ccc(=O)[nH]c3)s2)cc1 | inconclusive: 0.678% | – |
| COCc1nc2oc3ccc(C)cc3c(=O)c2cc1C(=O)OC | inactive: 5.71% | – |
| COc1cc(SC)ccc1C(=O)Nc1cc(C)c(OCC(=O)N2CCOCC2)c(C)c1 | inactive: 0.223% | – |
| COc1ccc(Cn2ccnc2SCC(=O)Nc2ccccc2OC)cc1 | – | inconclusive: 12.6 µM [falling, single point] |
| COc1ccccc1C(=O)Nc1cccc(NC(=O)c2ccccc2C)c1 | inconclusive: -2.02% | – |
| C=CCn1c(=O)c(C(=O)OCC)c(O)c2ccccc21 | inconclusive: -17.9% | – |
| COC(=O)c1ccc2nc(NC(=O)C(C)(C)C)sc2c1 | – | inconclusive: 17.8 µM [falling, partial curve] |
